Experimental data reported in article PMC7173924.

Chains of the proteins cited; added tags and fusions are not shown.
UniProt Q9UJ55: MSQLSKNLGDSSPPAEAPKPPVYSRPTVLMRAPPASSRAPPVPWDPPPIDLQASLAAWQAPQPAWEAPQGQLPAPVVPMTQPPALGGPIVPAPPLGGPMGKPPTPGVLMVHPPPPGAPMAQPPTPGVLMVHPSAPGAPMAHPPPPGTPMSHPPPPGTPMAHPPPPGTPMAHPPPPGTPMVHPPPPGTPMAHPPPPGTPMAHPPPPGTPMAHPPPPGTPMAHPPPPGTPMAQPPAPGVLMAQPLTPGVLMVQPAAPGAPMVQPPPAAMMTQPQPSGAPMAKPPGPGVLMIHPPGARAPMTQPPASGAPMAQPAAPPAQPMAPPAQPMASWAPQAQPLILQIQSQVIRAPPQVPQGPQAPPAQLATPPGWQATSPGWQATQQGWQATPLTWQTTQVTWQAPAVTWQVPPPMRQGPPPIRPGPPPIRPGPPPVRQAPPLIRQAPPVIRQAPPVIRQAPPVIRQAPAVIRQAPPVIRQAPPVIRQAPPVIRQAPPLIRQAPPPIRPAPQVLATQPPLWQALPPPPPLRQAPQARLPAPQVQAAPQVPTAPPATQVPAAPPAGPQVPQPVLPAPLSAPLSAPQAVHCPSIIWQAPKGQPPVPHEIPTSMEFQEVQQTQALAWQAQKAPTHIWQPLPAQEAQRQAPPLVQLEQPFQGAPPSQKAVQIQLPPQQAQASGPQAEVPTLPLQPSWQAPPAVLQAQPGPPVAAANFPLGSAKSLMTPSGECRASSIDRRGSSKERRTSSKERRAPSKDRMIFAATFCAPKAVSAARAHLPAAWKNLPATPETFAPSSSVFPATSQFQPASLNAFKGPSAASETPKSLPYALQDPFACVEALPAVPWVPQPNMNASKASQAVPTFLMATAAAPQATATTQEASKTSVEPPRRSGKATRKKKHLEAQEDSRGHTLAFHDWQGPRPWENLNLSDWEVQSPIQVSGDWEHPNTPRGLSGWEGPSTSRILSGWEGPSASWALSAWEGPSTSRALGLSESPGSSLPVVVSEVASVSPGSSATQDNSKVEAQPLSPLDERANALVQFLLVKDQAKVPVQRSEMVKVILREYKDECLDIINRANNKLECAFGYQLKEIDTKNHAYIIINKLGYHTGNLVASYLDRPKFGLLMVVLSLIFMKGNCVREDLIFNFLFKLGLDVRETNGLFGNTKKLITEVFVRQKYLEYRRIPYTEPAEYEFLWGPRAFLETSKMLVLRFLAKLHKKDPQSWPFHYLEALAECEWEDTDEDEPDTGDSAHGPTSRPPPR

Molecular target: BirA*-MAGEL2 (FLAG-tagged biotin ligase-fusion protein, wild type) (human) (UniProt Q9UJ55)
Test: proximity labelling; BioID in U2OS cells transiently co-transfected with a BirA* fusion (bait) and an epitope-tagged prey; 50 uM biotin, 24 h; streptavidin agarose affinity purification of the lysate, immunoblot of input and bound

B1: GFP-CRY2 (protein, UniProt Q49AN0 1-593)
chain: MAATVATAAAVAPAPAPGTDSASSVHWFRKGLRLHDNPALLAAVRGARCVRCVYILDPWFAASSSVGINRWRFLLQSLEDLDTSLRKLNSRLFVVRGQPADVFPRLFKEWGVTRLTFEYDSEPFGKERDAAIMKMAKEAGVEVVTENSHTLYDLDRIIELNGQKPPLTYKRFQAIISRMELPKKPVGLVTSQQMESCRAEIQENHDETYGVPSLEELGFPTEGLGPAVWQGGETEALARLDKHLERKAWVANYERPRMNANSLLASPTGLSPYLRFGCLSCRLFYYRLWDLYKKVKRNSTPPLSLFGQLLWREFFYTAATNNPRFDRMEGNPICIQIPWDRNPEALAKWAEGKTGFPWIDAIMTQLRQEGWIHHLARHAVACFLTRGDLWVSWESGVRVFDELLLDADFSVNAGSWMWLSCSAFFQQFFHCYCPVGFGRRTDPSGDYIRRYLPKLKAFPSRYIYEPWNAPESIQKAAKCIIGVDYPRPIVNHAETSRLNIERMKQIYQQLSRYRGLCLLASVPSCVEDLSHPVAEPSSSQAGSMSSAGPRPLPSGPASPKRKLEAAEEPPGEELSKRARVAELPTPELPSKDA
binding: binds

These are yes or no findings as the source states them, for the method shown. Binding seen in cells or lysates may run through a third protein. These calls come from enrichment with a bait or labelling near it, and not all partners need be listed. Where a sequence is shown, tags or fusion partners need not be part of it.
